Compound in this test: CC1Cc2ccccc2N1C(=O)C1CCCN(C1)C(=O)CCl (mixture of isomers) [TRIM25 ligand 11 (diastereomer mixture)]
The test is described as follows: probe-labelled cysteine peptide fold change vs DMSO (competition) (log2 fold change); higher = less target engagement (more negative = stronger competition). Conditions: THP-1, incubation time: 4 h.

Chains of the proteins cited; added tags and fusions are not shown. Lines headed by an entry give the natural chain unless they say otherwise; changes in a name come on top.
UniProt O75592: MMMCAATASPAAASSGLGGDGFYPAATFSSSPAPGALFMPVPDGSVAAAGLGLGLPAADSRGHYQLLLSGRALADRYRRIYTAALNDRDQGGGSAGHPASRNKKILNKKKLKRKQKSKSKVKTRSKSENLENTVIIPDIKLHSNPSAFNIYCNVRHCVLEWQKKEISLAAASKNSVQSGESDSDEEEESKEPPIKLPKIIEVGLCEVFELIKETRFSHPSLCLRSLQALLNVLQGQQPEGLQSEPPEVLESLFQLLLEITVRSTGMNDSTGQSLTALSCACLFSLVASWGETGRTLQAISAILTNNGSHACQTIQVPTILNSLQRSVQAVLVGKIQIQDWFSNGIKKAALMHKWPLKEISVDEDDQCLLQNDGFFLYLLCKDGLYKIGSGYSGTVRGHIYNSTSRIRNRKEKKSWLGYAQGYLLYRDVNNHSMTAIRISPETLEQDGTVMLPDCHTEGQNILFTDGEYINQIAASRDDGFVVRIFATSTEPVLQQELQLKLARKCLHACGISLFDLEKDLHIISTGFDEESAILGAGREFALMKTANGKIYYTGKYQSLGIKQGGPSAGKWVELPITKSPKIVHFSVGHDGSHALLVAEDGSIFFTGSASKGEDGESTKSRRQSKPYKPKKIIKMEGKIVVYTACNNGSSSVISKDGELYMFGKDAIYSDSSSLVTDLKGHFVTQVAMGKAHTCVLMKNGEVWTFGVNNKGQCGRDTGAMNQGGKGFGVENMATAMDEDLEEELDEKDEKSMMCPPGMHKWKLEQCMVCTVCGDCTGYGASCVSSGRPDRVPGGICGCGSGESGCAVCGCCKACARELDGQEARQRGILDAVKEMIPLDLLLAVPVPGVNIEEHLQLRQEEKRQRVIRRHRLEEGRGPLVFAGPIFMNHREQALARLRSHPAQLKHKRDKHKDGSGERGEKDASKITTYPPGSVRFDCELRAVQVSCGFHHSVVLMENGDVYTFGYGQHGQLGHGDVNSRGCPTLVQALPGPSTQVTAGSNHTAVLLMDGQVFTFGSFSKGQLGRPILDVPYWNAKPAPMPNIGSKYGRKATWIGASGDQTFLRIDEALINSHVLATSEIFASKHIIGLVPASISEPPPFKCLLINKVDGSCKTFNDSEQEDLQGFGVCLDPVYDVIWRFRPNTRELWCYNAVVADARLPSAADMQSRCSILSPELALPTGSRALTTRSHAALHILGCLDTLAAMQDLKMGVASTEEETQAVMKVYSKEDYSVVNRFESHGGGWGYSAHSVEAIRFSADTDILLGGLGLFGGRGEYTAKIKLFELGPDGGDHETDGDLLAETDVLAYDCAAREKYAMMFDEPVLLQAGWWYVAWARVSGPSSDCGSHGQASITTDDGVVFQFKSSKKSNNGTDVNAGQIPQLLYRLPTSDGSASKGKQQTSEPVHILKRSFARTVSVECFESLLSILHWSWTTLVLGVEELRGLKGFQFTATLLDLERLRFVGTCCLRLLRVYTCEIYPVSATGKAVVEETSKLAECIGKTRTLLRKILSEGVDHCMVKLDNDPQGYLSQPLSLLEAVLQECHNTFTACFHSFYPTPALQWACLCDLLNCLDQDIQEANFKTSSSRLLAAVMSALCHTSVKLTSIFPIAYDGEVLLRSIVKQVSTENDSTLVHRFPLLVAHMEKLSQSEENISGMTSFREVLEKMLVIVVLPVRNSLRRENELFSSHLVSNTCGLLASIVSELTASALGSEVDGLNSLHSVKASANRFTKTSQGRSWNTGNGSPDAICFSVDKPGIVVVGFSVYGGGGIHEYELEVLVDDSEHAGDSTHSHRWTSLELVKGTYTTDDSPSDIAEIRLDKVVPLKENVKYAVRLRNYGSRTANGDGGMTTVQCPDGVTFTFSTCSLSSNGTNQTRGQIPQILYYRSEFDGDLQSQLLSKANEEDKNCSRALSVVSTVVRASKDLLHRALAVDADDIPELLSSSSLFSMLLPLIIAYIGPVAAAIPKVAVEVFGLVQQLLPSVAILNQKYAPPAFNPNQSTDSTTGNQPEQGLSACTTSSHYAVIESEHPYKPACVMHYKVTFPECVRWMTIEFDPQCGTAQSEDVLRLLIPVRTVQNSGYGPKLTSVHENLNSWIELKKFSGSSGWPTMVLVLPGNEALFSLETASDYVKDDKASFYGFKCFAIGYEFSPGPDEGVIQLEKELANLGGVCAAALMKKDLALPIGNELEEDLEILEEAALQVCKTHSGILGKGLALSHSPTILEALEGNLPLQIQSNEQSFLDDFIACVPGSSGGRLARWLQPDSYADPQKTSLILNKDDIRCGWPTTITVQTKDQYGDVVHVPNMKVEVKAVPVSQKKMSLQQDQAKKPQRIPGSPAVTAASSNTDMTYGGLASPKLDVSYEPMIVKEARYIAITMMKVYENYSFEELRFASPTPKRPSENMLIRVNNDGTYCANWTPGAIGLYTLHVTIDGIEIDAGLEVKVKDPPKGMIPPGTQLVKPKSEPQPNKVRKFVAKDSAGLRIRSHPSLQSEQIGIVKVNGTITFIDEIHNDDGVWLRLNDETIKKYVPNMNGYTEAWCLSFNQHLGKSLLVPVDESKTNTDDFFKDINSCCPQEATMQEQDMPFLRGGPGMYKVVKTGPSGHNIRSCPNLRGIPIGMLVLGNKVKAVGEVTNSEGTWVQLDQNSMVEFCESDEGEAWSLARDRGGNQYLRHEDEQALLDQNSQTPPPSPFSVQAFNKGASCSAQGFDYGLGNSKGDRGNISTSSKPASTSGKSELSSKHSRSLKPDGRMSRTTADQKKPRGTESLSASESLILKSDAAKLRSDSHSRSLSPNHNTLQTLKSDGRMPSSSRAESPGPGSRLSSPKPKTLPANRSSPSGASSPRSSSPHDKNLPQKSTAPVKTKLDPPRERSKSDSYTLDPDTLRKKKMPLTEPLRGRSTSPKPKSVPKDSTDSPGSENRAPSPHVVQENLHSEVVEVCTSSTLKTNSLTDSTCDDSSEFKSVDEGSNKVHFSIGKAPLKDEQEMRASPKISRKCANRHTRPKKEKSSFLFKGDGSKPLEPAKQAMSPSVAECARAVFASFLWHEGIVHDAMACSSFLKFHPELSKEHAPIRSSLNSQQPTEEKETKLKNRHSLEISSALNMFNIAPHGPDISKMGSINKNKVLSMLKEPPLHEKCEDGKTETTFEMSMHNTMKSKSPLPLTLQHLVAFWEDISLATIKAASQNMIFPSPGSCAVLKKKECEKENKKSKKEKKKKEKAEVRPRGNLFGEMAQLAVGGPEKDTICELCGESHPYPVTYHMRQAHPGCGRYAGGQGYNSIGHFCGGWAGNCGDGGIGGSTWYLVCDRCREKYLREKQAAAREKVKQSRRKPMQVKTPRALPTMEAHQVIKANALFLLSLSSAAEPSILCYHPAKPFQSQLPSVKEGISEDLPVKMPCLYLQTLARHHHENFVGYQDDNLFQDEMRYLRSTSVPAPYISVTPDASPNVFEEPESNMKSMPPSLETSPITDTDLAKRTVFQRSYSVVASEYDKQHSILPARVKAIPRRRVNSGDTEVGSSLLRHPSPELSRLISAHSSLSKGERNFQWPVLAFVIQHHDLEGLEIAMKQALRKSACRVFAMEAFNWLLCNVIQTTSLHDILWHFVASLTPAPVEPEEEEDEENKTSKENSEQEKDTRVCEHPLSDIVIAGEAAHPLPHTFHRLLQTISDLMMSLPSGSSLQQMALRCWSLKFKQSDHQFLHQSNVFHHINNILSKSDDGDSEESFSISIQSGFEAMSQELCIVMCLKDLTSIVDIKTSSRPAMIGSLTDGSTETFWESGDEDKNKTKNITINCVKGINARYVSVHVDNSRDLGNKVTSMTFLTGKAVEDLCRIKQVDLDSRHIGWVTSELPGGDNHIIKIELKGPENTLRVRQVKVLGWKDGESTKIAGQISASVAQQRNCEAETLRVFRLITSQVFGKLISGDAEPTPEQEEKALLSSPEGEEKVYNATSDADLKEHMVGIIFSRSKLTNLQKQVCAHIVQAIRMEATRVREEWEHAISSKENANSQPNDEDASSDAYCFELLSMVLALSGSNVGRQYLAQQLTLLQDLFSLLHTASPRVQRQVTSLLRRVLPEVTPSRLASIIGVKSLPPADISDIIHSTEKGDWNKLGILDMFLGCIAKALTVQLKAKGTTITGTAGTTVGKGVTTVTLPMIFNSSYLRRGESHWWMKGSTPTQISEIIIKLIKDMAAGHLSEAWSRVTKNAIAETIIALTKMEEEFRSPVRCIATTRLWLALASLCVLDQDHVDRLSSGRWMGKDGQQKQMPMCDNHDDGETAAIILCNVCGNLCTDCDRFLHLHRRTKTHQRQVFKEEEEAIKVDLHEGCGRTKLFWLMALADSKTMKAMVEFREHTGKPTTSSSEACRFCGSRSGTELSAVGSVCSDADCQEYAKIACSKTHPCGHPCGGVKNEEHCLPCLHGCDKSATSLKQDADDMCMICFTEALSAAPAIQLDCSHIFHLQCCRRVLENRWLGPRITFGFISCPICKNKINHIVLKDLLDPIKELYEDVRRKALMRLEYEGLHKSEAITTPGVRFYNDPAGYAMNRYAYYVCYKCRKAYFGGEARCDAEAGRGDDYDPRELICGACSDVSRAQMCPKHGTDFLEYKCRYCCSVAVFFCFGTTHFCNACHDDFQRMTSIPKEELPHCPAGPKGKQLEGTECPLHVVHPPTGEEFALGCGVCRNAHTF
UniProt Q9Y3D2: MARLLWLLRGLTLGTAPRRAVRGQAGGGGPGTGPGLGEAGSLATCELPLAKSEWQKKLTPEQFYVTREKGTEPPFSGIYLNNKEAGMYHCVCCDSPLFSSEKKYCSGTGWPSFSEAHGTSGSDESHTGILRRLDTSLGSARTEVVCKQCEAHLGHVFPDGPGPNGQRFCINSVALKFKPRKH
UniProt Q13496: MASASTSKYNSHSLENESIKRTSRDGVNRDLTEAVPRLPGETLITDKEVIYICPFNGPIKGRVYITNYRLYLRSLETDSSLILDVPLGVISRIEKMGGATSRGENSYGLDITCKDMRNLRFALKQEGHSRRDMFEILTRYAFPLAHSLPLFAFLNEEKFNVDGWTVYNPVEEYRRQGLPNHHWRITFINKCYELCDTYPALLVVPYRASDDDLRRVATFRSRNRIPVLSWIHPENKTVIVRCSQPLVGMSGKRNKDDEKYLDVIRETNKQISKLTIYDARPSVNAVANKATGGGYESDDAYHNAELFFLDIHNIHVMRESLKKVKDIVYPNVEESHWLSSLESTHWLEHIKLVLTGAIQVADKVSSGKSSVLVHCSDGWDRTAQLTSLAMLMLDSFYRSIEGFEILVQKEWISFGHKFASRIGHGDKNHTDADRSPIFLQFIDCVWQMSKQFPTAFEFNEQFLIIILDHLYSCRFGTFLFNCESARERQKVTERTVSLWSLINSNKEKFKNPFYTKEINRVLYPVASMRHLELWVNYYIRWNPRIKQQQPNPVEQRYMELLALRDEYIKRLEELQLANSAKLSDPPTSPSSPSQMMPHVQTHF
UniProt P10242: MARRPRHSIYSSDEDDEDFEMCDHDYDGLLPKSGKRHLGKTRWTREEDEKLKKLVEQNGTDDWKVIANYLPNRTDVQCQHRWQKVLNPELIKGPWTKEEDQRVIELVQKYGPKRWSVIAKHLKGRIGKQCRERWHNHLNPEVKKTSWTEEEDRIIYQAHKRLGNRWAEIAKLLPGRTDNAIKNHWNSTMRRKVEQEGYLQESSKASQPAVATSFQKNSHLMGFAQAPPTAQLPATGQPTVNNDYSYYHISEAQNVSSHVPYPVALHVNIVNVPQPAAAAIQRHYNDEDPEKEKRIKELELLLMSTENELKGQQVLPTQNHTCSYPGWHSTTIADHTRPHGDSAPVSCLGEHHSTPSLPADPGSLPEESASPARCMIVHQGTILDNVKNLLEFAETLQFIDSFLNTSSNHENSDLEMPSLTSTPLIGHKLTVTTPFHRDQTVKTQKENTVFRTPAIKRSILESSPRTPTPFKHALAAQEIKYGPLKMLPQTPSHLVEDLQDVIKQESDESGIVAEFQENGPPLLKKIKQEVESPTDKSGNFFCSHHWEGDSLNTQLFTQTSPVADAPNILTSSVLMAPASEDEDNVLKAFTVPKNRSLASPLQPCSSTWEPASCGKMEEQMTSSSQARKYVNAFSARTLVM
UniProt Q9H4K7: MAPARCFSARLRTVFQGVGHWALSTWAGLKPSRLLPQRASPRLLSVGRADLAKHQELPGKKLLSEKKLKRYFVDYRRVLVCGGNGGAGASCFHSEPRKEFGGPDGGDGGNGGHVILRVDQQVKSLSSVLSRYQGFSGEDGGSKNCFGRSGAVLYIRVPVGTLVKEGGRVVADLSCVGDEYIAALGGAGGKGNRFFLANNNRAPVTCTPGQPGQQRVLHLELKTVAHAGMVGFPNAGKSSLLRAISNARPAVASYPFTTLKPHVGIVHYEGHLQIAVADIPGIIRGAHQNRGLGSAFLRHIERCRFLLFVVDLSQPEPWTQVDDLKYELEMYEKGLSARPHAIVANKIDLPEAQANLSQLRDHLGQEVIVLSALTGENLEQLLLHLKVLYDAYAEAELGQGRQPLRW

Experimental findings from the supplement of paper PMC12067093, “Discovery and optimisation of a covalent ligand for TRIM25 and its application to targeted protein ubiquitination” (Chemical Science, 2025) are described below.

The other results are listed elsewhere or left out.
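Also: competitive chemoproteomic profiling in live THP-1 cells with an iodoacetamide desthiobiotin (IA-DTB) probe, comparing probe-labelled peptide intensities in compound-treated cells against DMSO-treated controls.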

On to “MTMR14_Q8NCE2_252_YADFTLLSIPYPGCEFFK (UniProt Q8NCE2)”, for which the “probe-labelled cysteine peptide fold change” value runs as follows: (10 µM) 0.134; (50 µM) 0.167.
For “MYBBP1A_Q9BQG0_305_MQFWPASYLCFR (UniProt Q9BQG0)”, in that order: 0.152 and 0.358.
Regarding “MSH6_P52701_1337_EVCLASER (UniProt P52701)”, the “probe-labelled cysteine peptide fold change” value (10 µM) was -0.0287 and the “probe-labelled cysteine peptide fold change” value (50 µM) was determined as 0.098.
Turning to “MTMR1_Q13613_438_TSVVVHCSDGWDR (UniProt Q13613)”, the “probe-labelled cysteine peptide fold change” value is, setting by setting: (10 µM) 0.559; (50 µM) -0.0364.
As to “MYCBP2_O75592_2044_VTFPECVR (UniProt O75592)”, the “probe-labelled cysteine peptide fold change” value turned out to be 0.0366 (10 µM) and 0.119 (50 µM).
Take “MYCBP2_O75592_4652_QLEGTECPLHVVHPPTGEEFALGCGVCR (UniProt O75592)”: the “probe-labelled cysteine peptide fold change” value was 0.13 (10 µM) and -0.0984 (50 µM).
For “MRPS34_P82930_93_SWLWQHDEPCYWR (UniProt P82930)”, the “probe-labelled cysteine peptide fold change” value by setting is: (10 µM) 0.0173; (50 µM) 0.142.
For “MRPL58_Q14197_82_LTISYCR (UniProt Q14197)”, in that order: 0.0153 and 0.0178.
“MSRB2_Q9Y3D2_105_KYCSGTGWPSFSEAHGTSGSDESHTGILR (UniProt Q9Y3D2)”: the “probe-labelled cysteine peptide fold change” value was 0.0554 (10 µM) and -0.192 (50 µM).
On to “MTM1_Q13496_444_NHTDADRSPIFLQFIDCVWQMSK (UniProt Q13496)”, for which the “probe-labelled cysteine peptide fold change” value reads like this: (10 µM) 0.172; (50 µM) 0.0648.
As to “MYCBP2_O75592_3824_AVEDLCR (UniProt O75592)”, the “probe-labelled cysteine peptide fold change” value (10 µM) is -0.0531 and the “probe-labelled cysteine peptide fold change” value (50 µM) is -0.0509.
Regarding “MTR_Q99707_812_VIDLGVMTPCDK (UniProt Q99707)”, the “probe-labelled cysteine peptide fold change” value (10 µM) was found to be 0.0694 and the “probe-labelled cysteine peptide fold change” value (50 µM) is -0.164.
Regarding “MTPN_P58546_45_TLEGGRKPLHYAADCGQLEILEFLLLK (UniProt P58546)”, the “probe-labelled cysteine peptide fold change” value was -0.357 (10 µM) and -0.542 (50 µM).
MYB_P10242_78_TDVQCQHR (UniProt P10242): the “probe-labelled cysteine peptide fold change” value is, setting by setting: (10 µM) 0.0273; (50 µM) 0.0321.
For “MTG2_Q9H4K7_175_VVADLSCVGDEYIAALGGAGGK (UniProt Q9H4K7)”, the “probe-labelled cysteine peptide fold change” value reads like this: (10 µM) 0.0379; (50 µM) -0.147.
As to “MSRB2_Q9Y3D2_45_GQAGGGGPGTGPGLGEAGSLATCELPLAK (UniProt Q9Y3D2)”, the “probe-labelled cysteine peptide fold change” value reads like this: (10 µM) -0.113; (50 µM) -0.378.
For “MYBBP1A_Q9BQG0_614+623_SPAESCDLLGDIQTCIR (UniProt Q9BQG0)”, in that order: -0.339 and -0.434.
In the case of “MRPS5_P82675_377_GLHVVEIREECGPLPIVVASPR (UniProt P82675)”, the “probe-labelled cysteine peptide fold change” value was -0.00459 (10 µM) and -0.0614 (50 µM).
With “MTHFS_P49914_160_CLQHQEVKPYTLALAFK (UniProt P49914)”, the “probe-labelled cysteine peptide fold change” value (10 µM) was -0.136 and the “probe-labelled cysteine peptide fold change” value (50 µM) is -0.147.
“MTMR6_Q9Y217_203_CSQPLSGFSAR (UniProt Q9Y217)”: the “probe-labelled cysteine peptide fold change” value is 0.00906 (10 µM) and 0.15 (50 µM).
On to “MYBBP1A_Q9BQG0_890_RYCHDLGER (UniProt Q9BQG0)”, for which the “probe-labelled cysteine peptide fold change” value is -0.034 (10 µM) and 0.0213 (50 µM).
As for “MYH9_P35579_1379_MEDSVGCLETAEEVKR (UniProt P35579)”, the “probe-labelled cysteine peptide fold change” value reads like this: (10 µM) -0.129; (50 µM) -0.115.
In the case of “MSTO1_Q9BUK6_178_SICMIQK (UniProt Q9BUK6)”, the “probe-labelled cysteine peptide fold change” value is -0.0566 (10 µM) and 0.107 (50 µM).
For “MXI1_P50539_100_LKVLIPLGPDCTR (UniProt P50539)”, in that order: -0.0602 and -0.152.
For the target “MYH9_P35579_1379_KMEDSVGCLETAEEVK (UniProt P35579)”, the “probe-labelled cysteine peptide fold change” value reads like this: (10 µM) 0.0601; (50 µM) -0.00386.
For “MTHFR_P42898_452_VTCLPWNDEPLAAETSLLK (UniProt P42898)”, the “probe-labelled cysteine peptide fold change” value (10 µM) was determined as 0.144 and the “probe-labelled cysteine peptide fold change” value (50 µM) was 0.122.
With “MRPL50_Q8N5N7_52_KEPILVCPPLR (UniProt Q8N5N7)”, the “probe-labelled cysteine peptide fold change” value runs as follows: (10 µM) -0.34; (50 µM) -0.165.
“MTOR_P42345_1498_CLEALGEWGQLHQQCCEK (UniProt P42345)”: the “probe-labelled cysteine peptide fold change” value is, setting by setting: (10 µM) -0.0124; (50 µM) 0.00669.
Regarding “MSH6_P52701_783_QWLCAPLCNHYAINDR (UniProt P52701)”, the “probe-labelled cysteine peptide fold change” value (10 µM) worked out at 0.107 and the “probe-labelled cysteine peptide fold change” value (50 µM) was determined as 0.0685.
Turning to “MSTO1_Q9BUK6_232_LHFYVEECDYLQGFQILCDLHDGFSGVGAK (UniProt Q9BUK6)”, the “probe-labelled cysteine peptide fold change” value runs as follows: (10 µM) 0.183; (50 µM) -0.0331.
Turning to “MYBBP1A_Q9BQG0_890_YCHDLGER (UniProt Q9BQG0)”, the “probe-labelled cysteine peptide fold change” value is, setting by setting: (10 µM) -0.046; (50 µM) -0.0464.
With “MYADM_Q96S97_279_DVSCSR (UniProt Q96S97)”, the “probe-labelled cysteine peptide fold change” value runs as follows: (10 µM) 0.166; (50 µM) 0.376.
For the target “MTMR3_Q13615_473_CPVFLQWLDCVHQLQR (UniProt Q13615)”, the “probe-labelled cysteine peptide fold change” value was 0.0489 (10 µM) and 0.151 (50 µM).
For “MX1_P20591_52_VRPCIDLIDSLR (UniProt P20591)”, in that order: 0.0157 and 0.0645.
Regarding “MRPS9_P82933_330_HDVTCTVSGGGR (UniProt P82933)”, the “probe-labelled cysteine peptide fold change” value reads like this: (10 µM) 0.0395; (50 µM) 0.132.
On to “MYCBP2_O75592_4409_NEEHCLPCLHGCDK (UniProt O75592)”, for which the “probe-labelled cysteine peptide fold change” value is, setting by setting: (10 µM) -0.0399; (50 µM) -0.0266.
For “MYBL2_P10244_196_DCKPPVYLLLELEDK (UniProt P10244)”, in that order: 0.118 and -0.0777.
In the case of “MTRF1_O75570_200_TTGGDICQQFTR (UniProt O75570)”, the “probe-labelled cysteine peptide fold change” value was 0.041 (10 µM) and -0.0145 (50 µM).
For “MYB_P10242_374_CMIVHQGTILDNVK (UniProt P10242)”, in that order: 0.0276 and -0.0674.
“MTM1_Q13496_53_EVIYICPFNGPIK (UniProt Q13496)”: the “probe-labelled cysteine peptide fold change” value (10 µM) came to 0.0653 and the “probe-labelled cysteine peptide fold change” value (50 µM) was -0.0347.
As to “MTMR3_Q13615_81_ESLVNVPLQLIESVECR (UniProt Q13615)”, the “probe-labelled cysteine peptide fold change” value is, setting by setting: (10 µM) 0.553; (50 µM) -0.00809.
